Taken from: PubChem BioAssay AID1259405 (NCATS, 2018)
The deposit covers about 50,000 reagents; below is a random part of them. About 4,000 of them (8%) were called active. 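Mouse siRNA library applied to hamster cells; one well for each siRNA.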

- Aim: 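Mouse-designed siRNAs used to find CHO productivity engineering targets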 (primary screen)
- Cells: Chinese hamster CHO-K1 ovary cells with stable secreted eGFP expression
- Reagent: single siRNA against mouse genes, 0.8 pmol siRNA per well (2 µl of 400 nM stock)
- Timing: 3 days
- Measured: 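Percent of the per-plate non-targeting control median for intracellular GFP per well by laser scanning cytometry and for cell viability by ATP luminescence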
- Scale: GFP, % of control: higher = more GFP per well, higher productivity; viability (ATP), % of control: higher = more viable cells (more ATP)
- Active means: 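Called active when intracellular GFP, relative to negative control, is at or above 120%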

gene	PubChem SID	GFP, % of control	viability (ATP), % of control	Call
Cts7	SID363547308	102	91.1	inactive
Cts7	SID363558077	71	66.7	inactive
Cts7	SID363559835	70.4	89	inactive
Ei24	SID363540024	121	103	active
Ei24	SID363561325	135	46.1	active
Ei24	SID363564361	112	69.2	inactive
Hook1	SID363553610	50.2	37.9	inactive
Hook1	SID363561567	73.3	49.9	inactive
Hook1	SID363565305	30.5	42.9	inactive
Gjb4	SID363572647	51.4	73	inactive
Gjb4	SID363577927	131	106	active
Gjb4	SID363582151	90.7	138	inactive
Mgat2	SID363545176	85.5	54	inactive
Mgat2	SID363548689	71.3	79.7	inactive
Mgat2	SID363562495	45.8	55.3	inactive
Frey1	SID363543650	71.1	42.3	inactive
Frey1	SID363553143	182	147	active
Frey1	SID363558991	55.3	62.2	inactive
Hdlbp	SID363570119	113	113	inactive
Hdlbp	SID363576455	133	92.6	active
Hdlbp	SID363579623	79.6	47.8	inactive
Aox4	SID363546697	96.6	110	inactive
Aox4	SID363548453	111	115	inactive
Aox4	SID363560631	116	88.1	inactive
Tcam1	SID363541842	140	73.4	active
Tcam1	SID363553434	49.1	75.5	inactive
Tcam1	SID363566758	58.5	69.7	inactive
Or4d6	SID363554230	92.5	80.5	inactive
Or4d6	SID363567677	85.5	68	inactive
Or4d6	SID363585034	56.3	108	inactive
Strbp	SID363552234	75.5	75.8	inactive
Strbp	SID363556326	77.1	93.8	inactive
Strbp	SID363585370	88.9	94	inactive
Strbp	SID363585721	107	120	inactive
Strbp	SID363586776	137	137	active
Strbp	SID363588884	141	115	active
Fam110a	SID363552359	97.8	44.5	inactive
Fam110a	SID363585495	92.8	87.1	inactive
Fam110a	SID363585846	90.8	103	inactive
Slc22a8	SID363574772	96.3	48.6	inactive
Slc22a8	SID363575828	49.5	79.5	inactive
Slc22a8	SID363580404	54.6	67	inactive
Fndc11	SID363562270	70.6	50.7	inactive
Fndc11	SID363567408	58.7	89.4	inactive
Fndc11	SID363584765	88.6	65.7	inactive
Prss50	SID363574576	101	117	inactive
Prss50	SID363575632	55.2	56.2	inactive
Prss50	SID363580208	69.9	64.1	inactive
Olig3	SID363573836	59.5	108	inactive
Olig3	SID363581580	64	91.9	inactive
Olig3	SID363584044	69.5	94.5	inactive
Gipc1	SID363570403	107	131	inactive
Gipc1	SID363579203	155	162	active
Gipc1	SID363583075	106	111	inactive
Vmn2r7	SID363544352	100	83.7	inactive
Vmn2r7	SID363550680	75.2	113	inactive
Vmn2r7	SID363557229	81.1	99	inactive

Part of the list above, set out differently.
{"gene":"Strbp","PubChem SID":"SID363588884","GFP, % of control":141,"viability (ATP), % of control":115,"Call":"active"}
{"gene":"Fam110a","PubChem SID":"SID363552359","GFP, % of control":97.8,"viability (ATP), % of control":44.5,"Call":"inactive"}
